Data on 12 substances can be found in patent US20090232838A1 (priority 2005, published 2009).

The series can be described thus: general procedure: Fmoc solid-phase peptide synthesis; Rink Amide MBHA resin (Novabiochem, 0.66 mmol/g); Wang resin if C-terminal OH; HBTU/HOBT in DMF. The settings on record: whole synthesis, analytical HPLC, scale of the general procedure 1.00 mmol, 0.3 mmol.
With “Ac-c(Cys-Glu-His-D-2-Nal-Arg-Trp-Ala-Cys)-Pro-Pro-Lys-Asp-β-Ala-Tyr-Gly-Arg-Gln-Lys-Lys-Arg-Arg-Arg-Arg-Arg-NH2”, the “purity (crude or final not stated)” value came to 99.0%. The value for “Ac-c(Cys-Glu-His-D-2-Nal-Arg-Trp-Ala-Cys)-Pro-Pro-Lys-Asp-β-Ala-Tyr-Gly-Arg-Lys-Gln-Lys-Arg-Arg-Arg-Arg-Arg-NH2” was 95.0%; that for “Ac-c(Cys-Glu-His-D-2-Nal-Arg-Trp-Ala-Cys)-Pro-Pro-Lys-Asp-β-Ala-Tyr-Gly-Arg-Lys-Lys-Arg-Arg-Arg-Arg-Arg-Gln-NH2” was 99.0%. As for “Ac-c(Cys-Glu-His-D-2-Nal-Arg-Trp-Ala-Cys)-Pro-Pro-Lys-Asp-β-Ala-Tyr-Gly-Arg-Lys-Lys-Arg-Arg-Arg-Arg-Gln-Arg-NH2”, the figure is 99.0%; as for “Ac-c(Cys-Glu-His-D-2-Nal-Arg-Trp-Ala-Cys)-Pro-Pro-Lys-Asp-β-Ala-Tyr-Gly-Arg-Lys-Lys-Arg-Arg-Gln-Arg-Arg-Arg-NH2”, 99.2%; as for “Ac-c(Cys-Glu-His-D-2-Nal-Arg-Trp-Ala-Cys)-Pro-Pro-Lys-Asp-β-Ala-Tyr-Gly-Arg-Lys-Lys-Arg-Gln-Arg-Arg-Arg-Arg-NH2”, 99.0%. As for “Ac-c(Cys-Glu-His-D-2-Nal-Arg-Trp-Ala-Cys)-Pro-Pro-Lys-Asp-β-Ala-Tyr-Gly-Arg-Lys-Lys-Gln-Arg-Arg-Arg-Arg-Arg-NH2”, the figure is 99.0%. Take “Ac-c(Cys-Glu-His-D-2-Nal-Arg-Trp-Gly-Cys)-Pro-Pro-Lys-Asp-Doc-Tyr-Gly-Arg-Lys-Lys-Arg-Arg-Gln-Arg-Arg-Arg-NH2”: the “purity (crude or final not stated)” value was found to be 97.3%. As for “Ac-c(Cys-Glu-His-D-2-Nal-Arg-Trp-Gly-Cys)-Pro-Pro-Lys-Asp-Tyr-Gly-Arg-Lys-Lys-Arg-Arg-Gln-Arg-Arg-Arg-NH2”, the figure is 99.9%; as for “Nle-c(Asp-His-D-2-Nal-Arg-Trp-Lys)-β-Ala-Tyr-Gly-Arg-Lys-Lys-Arg-Arg-Gln-Arg-Arg-Arg-NH2”, 99%; as for “Tyr-Gly-Arg-Lys-Lys-Arg-Arg-Gln-Arg-Arg-Arg-Doc-Nle-c(Asp-His-D-2-Nal-Arg-Trp-Lys)-NH2”, 99%.

For “Tyr-Gly-Arg-Lys-Lys-Arg-Arg-Gln-Arg-Arg-Arg-Nle-c(Asp-His-D-2-Nal-Arg-Trp-Lys)-NH2”, the “purity (crude or final not stated)” value is reported as 99%.
